Fewer than 10 of roughly 1,800 compounds were called active.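 The calls were made as follows: active = inhibition of granule release above a set limit; inactive = the rest.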 This is one part of the list.

This note sets out measurements from PubChem BioAssay AID651664 (NMMLSC, 2012).

A short description of the experiment: LAMP-1 surface externalization blockers in TALL-104 cells – cell-based, flow cytometry, validation set (AID 651664). The note with it: TALL-104 LAMP-1 externalization, at 15.2 µM, hits give high values, stimulated with thapsigargin and PMA.
As usually defined, the inhibition is the change of the read-out against control, counted positive when it falls. In the case of `O=c1[nH]c2cc3c(cc2cc1CN(Cc1cccs1)Cc1nnnn1Cc1ccco1)OCCO3`, the inhibition was inactive: -3.2%.
As for `CCC(C)N=CC1=C(O)CC(c2ccccc2)CC1=O` (stereo not given), the inhibition is inactive: -2.1%.
Turning to `Cc1ccc(C(C#N)c2ccc(C(=O)c3ccc(F)cc3)cc2)cc1` (stereo not given), the inhibition was inactive: -1.9%.
With `CCOc1ccc(CN(CCO)CCO)cc1[N+](=O)[O-]` the figure was inactive: -2.2%.
Turning to `COC(=O)c1cc2c(C)c(C)c3ccccn3c-2c1C(=O)OC`, the inhibition was inactive: -1%.
For `CC12C(=O)N(CCC(=O)O)C(=O)C1C1C=CC2C1` (stereo not given), the inhibition is inactive: -1%.
On to `Cc1ccc(-c2nc(N)c3c(-c4ccc(C)cc4)nn(C(C)(C)C)c3n2)cc1`, for which the inhibition is inactive: 0%.
Turning to `CC(=O)c1c(N2CCCCC2)nc(=S)n(-c2ccccc2)c1C`, the inhibition is inactive: -4%.
Under `COC(=O)c1ccccc1NC(=O)CN1CCC(n2nnc3cc(C(F)(F)F)ccc32)CC1` stands inactive: -1.3%; under `O=C(O)c1c[nH]c(=S)n1-c1ccc(F)cc1`, inactive: 1.2%; under `CC(SCc1cn2cc(Cl)ccc2n1)C(=O)O` (stereo not given), inactive: -0.7%.
As for `O=C(COC(=O)c1cc(-c2cccs2)nc2ccccc12)NCc1ccco1`, the inhibition is inactive: 13.2%.
With `COC(=O)c1ccc(N2C(=O)CC(N(C)CCc3ccc(OC)c(OC)c3)C2=O)cc1` (stereo not given) the figure was active: 66%; with `O=S(=O)(NCc1cn2ccccc2n1)c1cc(F)ccc1F`, inactive: 0.7%; with `Cn1ccnc1SCc1cn2ccccc2n1`, inactive: 13%.
`CCOc1cc(/C=C2\C(=O)N(c3ccc(C(N)=O)cc3)N=C2C)ccc1OC(=O)c1cccs1`: the inhibition is inactive: -0.1%.
Regarding `Cn1c(C(N)=O)cnc1Sc1ncc(C(F)(F)F)cc1Cl`, the inhibition was inactive: -2.7%.
Turning to `C=CCn1c(SCc2nc3ccccc3c(=O)[nH]2)nnc1-c1cc2cc(Cl)ccc2o1`, the inhibition is inactive: 6.9%.
With `O=C(NCc1ccccc1)N1CCN(c2ccc(Cl)c(Cl)c2)CC1`, the inhibition was inactive: -0.9%.
In the case of `CNC(=O)c1sc(-c2ccc(Cl)cc2)nc1C`, the inhibition was inactive: -2.2%.
For `COC(=O)c1ccccc1NC(=S)NC(=O)COc1ccc(C)cc1`, the inhibition is inactive: -0.7%.
With `COCCNc1nc2ccccc2nc1NS(=O)(=O)c1ccc(C)cc1C` the figure was inactive: 2.3%.
Turning to `Cc1ccc(C)c2[nH]c(=O)c(CN(Cc3ccco3)C(=O)Nc3ccccc3)cc12`, the inhibition is inactive: -1.3%.
Turning to `O=C(NCc1ccc2c(c1)OCO2)c1cccc(F)c1`, the inhibition was inactive: 6.2%.
As for `Cc1csc(NC(=O)c2ccco2)n1`, the inhibition is inactive: -0.3%.
Regarding `CO/N=C/C(=N\Nc1ccc(OC)cc1)C(=O)c1ccc(OC)cc1`, the inhibition is inactive: 0.7%.
On to `O=C(COC(=O)c1ccco1)Nc1cccc(Br)c1`, for which the inhibition is inactive: -0.1%.
With `O=C1c2ccccc2N2C(=O)c3ccccc3C2N1O` (stereo not given), the inhibition is inactive: 2.3%.
As for `CCOCCCN(C(=O)c1ccco1)C(C(=O)NC1CCCC1)c1cccc(OC)c1OC` (stereo not given), the inhibition is inactive: 0.9%.
Regarding `Cc1cc(C(F)(F)F)nn1CC(=O)N(C)C1CCCCC1`, the inhibition was inactive: 2.4%.
Consider `COc1ccc(-c2cc(C(F)(F)F)nc(SCCC(=O)NCc3ccccc3)n2)cc1`, for which the inhibition is inactive: 0.1%.
Turning to `O=C1CC(N2CCN(C3CCc4ccccc4C3)CC2)C(=O)N1c1ccccc1` (stereo not given), the inhibition is inactive: -0.7%.
In the case of `CN(C)c1ccc(C(=O)c2ccc(N(C)C)c3ccccc23)cc1`, the inhibition was inactive: 1.7%.
Consider `Fc1cc2nc(-c3ccncc3)[nH]c2cc1F`, for which the inhibition was inactive: -0.1%.
In the case of `Cc1ccc(C2CCN(C(=O)Nc3ccccc3)C2)cc1` (stereo not given), the inhibition is inactive: 0.1%.
`Cc1nc2nc(CSc3ccc(Cl)cc3)cc(=O)n2[nH]1`: the inhibition is inactive: -1.3%.
For `CNS(=O)(=O)c1cccc2cccnc12`, the inhibition is inactive: -1.9%.
On to `CCn1cc(/C=N/NC(=O)c2cc3c(ccc4ccccc43)o2)c2ccccc21`, for which the inhibition was inactive: -2.8%.
Take `Cc1ccc2cc(CN(Cc3ccco3)C(=O)C3CCCCC3)c(=O)[nH]c2c1C`: the inhibition was inactive: -4.3%.
Take `Cc1ccc(-c2csc(-c3c[nH]c4ccccc34)n2)cc1`: the inhibition was inactive: -2.9%.
Under `O=C(NCc1ccco1)c1nn2c(C(F)(F)F)cc(-c3cccs3)nc2c1Br` stands inactive: 3.5%; under `CCN(CC)CCNC(=O)C12CC3CC(CC(C3)C1)C2`, inactive: -1.1%; under `O=C(/C=C/c1ccccc1)N1CCN(CC(O)COc2ccccc2)CC1` (stereo not given), inactive: -0.8%.
Under `C=CCON1C(=O)c2ccccc2C1=O` stands inactive: -0.2%; under `O=C(Nc1ccc(N2CCCCC2)c(Cl)c1)c1ncn[nH]1`, inactive: -2.9%; under `CCOc1cccc(NC(=O)Cc2cccs2)c1`, inactive: -0.5%.
`CCC(C)(C)NC(=O)C(c1ccccc1)N(Cc1cccs1)C(=O)Cn1nnc2ccccc21` (stereo not given): the inhibition is inactive: 1.5%.
Regarding `Cc1oc(C(C)(C)C)cc1C(=O)Nc1ccc2c(c1)OCCO2`, the inhibition was inactive: -1.2%.
On to `CCOC(=O)C(CC)(CC)C(=O)/C=C/c1ccc(Br)cc1`, for which the inhibition is inactive: 2.5%.
Consider `Cc1cccc(N/C=C/c2onc(C)c2[N+](=O)[O-])c1`, for which the inhibition was inactive: 0.2%.
Take `Clc1ccc(Oc2cnns2)cc1Cl`: the inhibition is inactive: 0.6%.
As to `COc1ccc(CNC(=O)CN2C(=O)C(C)N(c3ccc(C)cc3)C2=O)cc1` (stereo not given), the inhibition is inactive: 1.9%.
In the case of `CC1CN(C(=O)CCc2ccccc2)C(C)CN1C(=O)CCc1ccccc1` (stereo not given), the inhibition was inactive: 0.2%.
Turning to `Cc1nc2scc(-c3cccs3)c2c(=O)o1`, the inhibition is inactive: -3.2%.
Under `Cc1ccc(C(=O)N/C(=C/c2ccco2)C(=O)NCCc2c[nH]c3ccccc23)cc1C` stands inactive: 1.6%.
Turning to `Cc1nn(-c2ccccc2)c(C)c1/C=N/O`, the inhibition was inactive: -0.7%.
Take `CC(C)n1c(-c2cccs2)nc2ccccc21`: the inhibition was inactive: 1.1%.
Regarding `O=C(CSc1nnnn1-c1cccc2c1CCCC2)NC1CCCC1`, the inhibition is inactive: -1.9%.
As for `O=C(Cc1ccccc1)N1CCC(C(=O)N2CCN(c3ccc(F)cc3)CC2)CC1`, the inhibition was inactive: 3.1%.
Turning to `c1nnnn1C12CC3CC(CC(C3)C1)C2`, the inhibition is inactive: 3.1%.
Regarding `O=C(CSc1n[nH]c(-c2ccc(Cl)cc2Cl)n1)Nc1ccccn1`, the inhibition was inactive: -0.7%.
Under `COC(=O)c1ccc(=O)n(Cc2ccc3c(c2)OCO3)c1` stands inactive: -2.2%.
Take `Cc1ccc(Cn2c(NCCCn3ccnc3)nc3c2c(=O)n(C)c(=O)n3C)cc1`: the inhibition is inactive: -1%.
Take `CN(C)CCCn1c(N)c(C#N)c2nc(C#N)c(C#N)nc21`: the inhibition is inactive: -4.1%.
With `Cc1ccccc1S(=O)(=O)Cc1ccc(C(=O)NCCN2CCCCC2C)o1` (stereo not given) the figure was inactive: -1.1%; with `O=C(N/N=C/c1ccc(O)cc1)c1ccc(NC(=O)c2ccccc2Br)cc1`, inactive: 2.1%; with `CCOC(=O)c1c(C)n(C)c2ccc(O)c(CN(C)C)c12`, inactive: 20.7%.
With `COc1ccc(C2CC(c3c(-c4ccccc4)c4cc(Cl)ccc4[nH]c3=O)=NN2S(C)(=O)=O)cc1OC` (stereo not given), the inhibition was inactive: -1.3%.
Regarding `O=C(CCCN1C(=O)c2cccc3cccc(c23)C1=O)N1CCc2ccccc2C1`, the inhibition was inactive: -1.6%.
Take `COC(=O)CN1C(=O)CSc2ncccc21`: the inhibition was inactive: 0.6%.
Under `Cc1ccccc1NC(=O)c1nc[nH]c1C(=O)NCc1ccccc1` stands inactive: 2.2%; under `COc1cccc2cc(C(=O)Nc3cccc(C)n3)c(=O)oc12`, inactive: 4.9%; under `CC(CSc1nc2ccccc2s1)Cn1c(N2CCCC2)nc2c1c(=O)[nH]c(=O)n2C` (stereo not given), inactive: -0.5%.
For the compound `CCc1cc(C(c2ccc(F)cc2)N2CCOCC2)c(NC(=O)c2ccccc2)s1` (stereo not given), the inhibition was inactive: 7.6%.
Regarding `CCOC(=O)c1c(C)n(C)c2ccc(OCCN(C)C)cc12`, the inhibition is inactive: 7.6%.
In the case of `O=C(NCCc1ccc(F)cc1)c1cccs1`, the inhibition is inactive: 0.6%.
`Cc1ccc(CNC(=O)C2CC(=O)N(C3CCCCCCC3)C2)cc1` (stereo not given): the inhibition is inactive: -2.7%.
As to `Cc1cc(C)n2[nH]c(=O)c(N=Nc3cccc(Cl)c3)c2n1`, the inhibition is inactive: -3.3%.
Under `O=C1c2ccccc2C(=O)N1CCC(c1ccc(F)cc1)c1ccco1` (stereo not given) stands inactive: 0.1%.
With `COc1ccc(CC(=O)NC(C)c2nnc(SCc3nc4ccccc4c(=O)[nH]3)n2C)cc1` (stereo not given) the figure was inactive: 0.7%; with `O=c1c2cnn(-c3ccccc3)c2ncn1Cc1cccnc1`, inactive: -0.5%; with `COc1ccccc1C(=O)Nc1cc(Cl)ccc1O`, inactive: -2.7%.
Under `O=C(Nc1ccccc1)N1CCSCC1` stands inactive: -3.9%; under `CCOC(=O)C1CCN(CC(=O)Nc2c(C(=O)OC)[nH]c3ccc(Cl)cc23)CC1`, inactive: -3.8%; under `O=C(CCCN1C(=O)C2CCCCN2C1=O)N1CCN(c2ccc([N+](=O)[O-])cc2)CC1` (stereo not given), inactive: -3.3%.
For the compound `CCOC(=O)Cc1c(C)nc2c(-c3ccc(Cl)cc3)c[nH]n2c1=O`, the inhibition was inactive: -2.3%.
Regarding `O=C1c2ccccc2-c2nnc(-c3ccccc3)cc21`, the inhibition is inactive: -4.3%.
Regarding `CC1=CC=CN2CC(O)CN=C12` (stereo not given), the inhibition was inactive: 1%.
Consider `CC1(C)C(=O)N(OCc2ccccc2)C(C)(C)C(=O)N1OCc1ccccc1`, for which the inhibition was inactive: -2.5%.
Consider `CCOc1ccccc1NC(=O)c1cccnc1`, for which the inhibition is inactive: -2.6%.
For the compound `O=S(=O)(NCc1ccccc1)c1cccs1`, the inhibition is inactive: -1.5%.
Under `O=C(CSc1ncn[nH]1)NC12CC3CC(CC(C3)C1)C2` stands inactive: 2.2%; under `CN(C)/C=N/C(=S)Nc1ccccc1F`, inactive: -0.8%; under `CC(O)c1c(OCc2ccccc2)ncnc1OCc1ccccc1` (stereo not given), inactive: 2.8%.
As to `CC1CCCC(NC(=O)COC(=O)c2c[nH]c(=O)[nH]c2=O)C1C` (stereo not given), the inhibition was inactive: -2.4%.
With `Cc1[nH]c2ccccc2c1C(=O)COC(=O)C1CC(=O)N(Cc2ccccc2)C1` (stereo not given) the figure was inactive: -2.1%; with `COCCN(C(=O)c1ccco1)c1nnc(-c2ccc(OC)c(OC)c2)s1`, inactive: 0.9%; with `Nc1ccc2c(c1)C(=O)N(CCCC(=O)O)C2=O`, inactive: -1.7%.
Under `O=c1[nH]c2cccnc2n1Cc1ccccc1` stands inactive: 4.3%; under `CCOc1ccc(C(=O)COc2ccc(NC(C)=O)cc2)cc1`, inactive: -3.8%.
